In paper PMC11367994:
No constants are given. Whether binding was seen depends on the method and setting. In cells and extracts the contact can be indirect. Some binding calls cover weakened binding; strength is not graded here. Values belong to the substance of their own block, whether it stands above or below them.

By UniProt entry, the sequences of proteins in these tests, tags left out. Where a name states a change or a piece, a line headed by the entry shows the natural chain unless it says otherwise.
UniProt P49841: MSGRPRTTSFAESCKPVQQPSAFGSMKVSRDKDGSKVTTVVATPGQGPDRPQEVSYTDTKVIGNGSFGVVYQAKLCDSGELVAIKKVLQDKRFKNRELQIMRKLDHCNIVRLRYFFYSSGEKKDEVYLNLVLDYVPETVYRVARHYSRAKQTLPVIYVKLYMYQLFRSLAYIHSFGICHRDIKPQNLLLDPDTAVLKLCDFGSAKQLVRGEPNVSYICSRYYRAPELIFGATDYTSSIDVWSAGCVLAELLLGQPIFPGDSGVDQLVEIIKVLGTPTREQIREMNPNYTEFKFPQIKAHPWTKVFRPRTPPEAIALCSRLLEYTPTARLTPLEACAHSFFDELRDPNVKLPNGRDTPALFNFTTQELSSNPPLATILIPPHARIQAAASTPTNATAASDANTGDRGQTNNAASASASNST
UniProt Q14694: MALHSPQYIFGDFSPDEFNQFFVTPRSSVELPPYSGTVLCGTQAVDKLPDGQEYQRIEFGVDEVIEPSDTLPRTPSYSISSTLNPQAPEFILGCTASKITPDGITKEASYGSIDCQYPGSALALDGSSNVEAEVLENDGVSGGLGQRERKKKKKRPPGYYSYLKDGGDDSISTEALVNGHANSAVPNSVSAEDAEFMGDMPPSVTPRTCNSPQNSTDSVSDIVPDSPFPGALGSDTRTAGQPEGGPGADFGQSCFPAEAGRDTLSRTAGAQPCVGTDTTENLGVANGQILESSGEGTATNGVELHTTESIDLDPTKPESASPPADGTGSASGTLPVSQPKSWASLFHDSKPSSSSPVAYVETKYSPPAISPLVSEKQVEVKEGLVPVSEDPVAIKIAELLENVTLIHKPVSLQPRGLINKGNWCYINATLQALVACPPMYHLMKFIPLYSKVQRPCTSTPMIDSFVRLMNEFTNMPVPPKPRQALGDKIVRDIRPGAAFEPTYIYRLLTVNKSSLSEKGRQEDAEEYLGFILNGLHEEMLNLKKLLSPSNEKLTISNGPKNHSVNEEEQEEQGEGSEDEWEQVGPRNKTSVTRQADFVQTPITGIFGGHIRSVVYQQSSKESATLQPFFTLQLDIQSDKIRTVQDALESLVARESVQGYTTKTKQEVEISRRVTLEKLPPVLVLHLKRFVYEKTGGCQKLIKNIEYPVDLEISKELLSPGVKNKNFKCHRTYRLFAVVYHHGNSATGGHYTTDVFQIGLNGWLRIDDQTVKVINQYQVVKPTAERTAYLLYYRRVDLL

Legend:
[1] = target: HA-GSK3β-G1 (1-420aa) from HEK293T cells (UniProt P49841); assay: co-IP; HEK293T (text: HEK293FT) cells transfected with HA-GSK3β and Flag-USP10 domains, or Flag-USP10 and HA-GSK3β domains; immunoprecipitation and western blot of cell lysates
[2] = target: Ubiquitin-specific protease 10 (USP10), endogenous (human (endogenous in 143B and U2OS)) (UniProt Q14694); assay: co-IP; endogenous proteins; 143B and U2OS lysates (RIPA buffer) immunoprecipitated with anti-IgG, anti-USP10 or anti-GSK3β antibodies and protein A/G agarose overnight at 4 °C; western blot
[3] = target: Flag-USP10-U1 (1-798aa) from HEK293T cells (UniProt Q14694); assay: co-IP; HEK293T (text: HEK293FT) cells transfected with HA-GSK3β and Flag-USP10 domains, or Flag-USP10 and HA-GSK3β domains; immunoprecipitation and western blot of cell lysates

- binding [1]: binds
Substance: Flag-USP10-U4 (415-798aa) (from UniProt Q14694 415-798) (domain or fragment)

- binding [2]: binds
Substance: Glycogen synthase kinase 3β (GSK3β), endogenous (from UniProt P49841 1-420) (enzyme)

- binding [3]: binds
Substance: HA-GSK3β-G3 (56-340aa) (from UniProt P49841 56-340) (domain or fragment)
